Measurements reported in PubChem BioAssay AID504793 (Drosophila RNAi Screening Center, 2011).

- Screen: 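Genes required for cells to halt at G2/M after double-strand DNA breaks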 (primary screen)
- Cell system: Drosophila S2R+ cells
- Reagent: long dsRNA against Drosophila genes, about 0.25 µg dsRNA per well
- Time to read-out: 4 days of dsRNA, then 4 hours of drug before read-out
- Challenge: doxorubicin 0.5 µM for 4 hours to cause double-strand breaks, in cells also given a low, harmless dose of dsRNA against nbs to sensitise the assay
- Measurement: 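Mitotic index as the number of phospho-histone H3-positive cells in each well following doxorubicin, given as raw counts without normalisation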
- Direction: mitotic cells: higher = more cells in mitosis, weaker G2 arrest
- Rule for the call: 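Genes are called active only when high mitotic counts were reproduced with independent dsRNAs and mitosis was checked for delay without damage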
- Calls: active = confirmed in follow-up tests; inactive = not confirmed
The screen tested about 23,000 reagents; shown is an unselected part of those with a known target gene and a result. Of all reagents, 62 (0.27%) are marked active. 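Calls come from follow-up tests whose scores are not deposited, so confirmed genes may have low counts here; counts are not normalised per plate.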 Raw values vary from plate to plate and are shown uncorrected. A number with no mark means an inactive call. Reagents against one gene are numbered here.

no.	target	dsRNA no.	mitotic cells, replicate 1	mitotic cells, replicate 2
1	U2af50 (U2 small nuclear riboprotein auxiliary factor 50)	1	3	
2	U2af50 (U2 small nuclear riboprotein auxiliary factor 50)	2	14	
3	CG17191	1	10	
4	CG17191	2	4	
5	CycJ (Cyclin J)	1	5	
6	CycJ (Cyclin J)	2	8	
7	Alp1 (Alkaline phosphatase 1)	1	7	
8	loj (logjam)	1	6	
9	TTLL1B (Tubulin tyrosine ligase-like 1B)	1	7	
10	Cpsf73 (Cleavage and polyadenylation specificity factor 73)	1	8	
11	Cpsf73 (Cleavage and polyadenylation specificity factor 73)	2	5	
12	CG12498	1	6	
13	atk (artichoke)	1	4	9
14	atk (artichoke)	2	4	
15	atk (artichoke)	3	4	
16	CG13218	1	8	
17	CG13218	2	7	
18	CG9004	1	8	
19	tyf (twenty-four)	1	11	
20	tyf (twenty-four)	2	4	
21	Sirt7 (Sirtuin 7)	1	5	
22	Sirt7 (Sirtuin 7)	2	1	
23	Ror	1	3	
24	Srg1 (Sting-regulated gene 1)	1	7	
25	Srg1 (Sting-regulated gene 1)	2	3	
26	Acp95EF (Accessory gland protein 95EF)	1	15	
27	Jon66Ci (Jonah 66Ci)	1	4	
28	Jon66Ci (Jonah 66Ci)	2	6	
29	MED30 (Mediator complex subunit 30)	1	7	
30	MED30 (Mediator complex subunit 30)	2	12	
31	Rad23	1	9	
32	ms(2)34Fe (male sterile (2) 34Fe)	1	6	
33	Alg-2 (Apoptosis-linked gene-2)	1	1	
34	Rpt3 (Regulatory particle triple-A ATPase 3)	1	80	
35	Rpt3 (Regulatory particle triple-A ATPase 3)	2	65	
36	Vdup1 (Vitamin D[[3]] up-regulated protein 1)	1	4	
37	epsilonCOP (Coat Protein (coatomer) epsilon)	1	6	
38	epsilonCOP (Coat Protein (coatomer) epsilon)	2	9	
39	CycK (Cyclin K)	1	7	
40	CG12811	1	6	
41	Ankrd49	1	9	
42	Ankrd49	2	7	
43	CG6171	1	4	
44	TwdlH (TweedleH)	1	8	
45	CG4752	1	3	
46	CG4752	2	7	
47	ATPsyngamma (ATP synthase, gamma subunit)	1	18	
48	CG1494	1	12	
49	Sec24CD (Secretory 24CD)	1	8	
50	PhKgamma (Phosphorylase kinase gamma)	1	6	
51	PhKgamma (Phosphorylase kinase gamma)	2	5	
52	Ir84a (Ionotropic receptor 84a)	1	4	
53	Ir84a (Ionotropic receptor 84a)	2	7	
54	yps (ypsilon schachtel)	1	18	
55	Sdc (Syndecan)	1	10	
56	Sdc (Syndecan)	2	4	
57	CG32219	1	8	
58	CG7332	1	10	
59	CG7332	2	2	
60	CG8607	1	4	
61	CG32772	1	2	
62	CG32772	2	4	
63	GstD7 (Glutathione S transferase D7)	1	12	
64	GstD7 (Glutathione S transferase D7)	2	6	
65	CG11902	1	19	
66	CG11902	2	7	
67	Vha26 (Vacuolar H[+]-ATPase 26kD subunit)	1	6	
68	Vha26 (Vacuolar H[+]-ATPase 26kD subunit)	2	10	
69	ldbr (lariat debranching enzyme)	1	3	
70	sturkopf	1	4	
71	sturkopf	2	11	
72	Phae1 (Phaedra 1)	1	12	
73	NijB (Ninjurin B)	1	10	
74	CG43980	1	5	
75	CG43980	2	4	
76	CG43980	3	5	
